From the supplement of paper PMC10382679
Single values of this set are uncertain.

B1: Rpb7; numbered along this chain (parent)
chain: MFFIKDLSLNITLHPSFFGPRMKQYLKTKLLEEVEGSCTGKFGYILCVLDYDNIDIQRGRILPTDGSAEFNVKYRAVVFKPFKGEVVDGTVVSCSQHGFEVQVGPMKVFVTKHLMPQDLTFNAGSNPPSYQSSEDVITIKSRIRVKIEGCISQVSSIHAIGSIKEDYLGAI

Experiments:
[1] = variants of: B1; assay: log2 fold change of mutant abundance, UV-irradiated vs unirradiated; higher = more UV resistant (enriched after UV); conditions: with Saccharomyces cerevisiae rad7Δ rad26Δ; UV dose (J/m2): 10; genetic background: rad7Δ rad26Δ rpb7Δ + plasmid RPB7 library; outgrowth: 10 cell divisions
[2] = variants of: B1; assay: NOISeq theta enrichment statistic, UV-irradiated vs unirradiated (dimensionless); higher = more UV resistant (enriched after UV); conditions: with Saccharomyces cerevisiae rad7Δ rad26Δ; UV dose (J/m2): 10; genetic background: rad7Δ rad26Δ rpb7Δ + plasmid RPB7 library; outgrowth: 10 cell divisions

| Variant | log2 fold change of mutant abundance [1] | NOISeq theta enrichment statistic [2] |
| --- | --- | --- |
| D65H | 0.0161 | 0.0202 |
| D65I | 0.294 | 0.188 |
| D65K | -0.158 | -0.124 |
| D65L | 0.608 | 0.391 |
| D65M | 0.0943 | 0.108 |
| D65N | 0.244 | 0.587 |
| D65R | -0.259 | -0.122 |
| D65S | 0.0151 | 0.0125 |
| D65T | -0.144 | -0.116 |
| D65V | 0.176 | 0.798 |
| D65Y | 0.0223 | 0.0714 |
| G66A | 0.0591 | 0.0734 |
| G66C | 0.0759 | 0.0623 |
| G66E | -0.255 | -0.525 |
| G66K | -0.675 | -0.327 |
| G66L | -0.227 | -0.166 |
| G66R | -0.19 | -0.392 |
| G66S | 0.0643 | 0.0337 |
| G66V | -0.0216 | -0.0763 |
| G66W | -0.0702 | -0.173 |
| S67A | 0.11 | 0.259 |
| S67C | 0.00686 | 0.0105 |
| S67D | -0.452 | -0.285 |
| S67F | -0.027 | -0.104 |

| Variant | log2 fold change of mutant abundance [1] | NOISeq theta enrichment statistic [2] |
| --- | --- | --- |
| S67H | 0.000577 | 0.000327 |
| S67I | -0.0813 | -0.0444 |
| S67L | -0.291 | -0.305 |
| S67P | -0.0289 | -0.082 |
| S67T | 0.129 | 0.477 |
| S67V | -0.194 | -0.154 |
| S67Y | -0.00106 | -0.00276 |
| A68D | -0.0809 | -0.108 |
| A68F | 0.4 | 0.294 |
| A68G | 0.0879 | 0.121 |
| A68I | -0.435 | -0.241 |
| A68N | 1.36 | 0.699 |
| A68P | 0.0545 | 0.101 |
| A68R | -0.333 | -0.152 |
| A68S | 0.114 | 0.406 |
| A68T | -0.00852 | -0.0323 |
| A68V | 0.0503 | 0.189 |
| E69A | -0.143 | -0.514 |
| E69C | -0.626 | -0.335 |
| E69D | -0.0103 | -0.0356 |
| E69G | -0.0859 | -0.348 |
| E69H | 0.84 | 0.43 |
| E69K | 0.0205 | 0.0536 |
| E69L | 0.0647 | 0.0451 |

| Variant | log2 fold change of mutant abundance [1] | NOISeq theta enrichment statistic [2] |
| --- | --- | --- |
| E69M | -0.11 | -0.0749 |
| E69N | 0.376 | 0.25 |
| E69Q | -0.0717 | -0.109 |
| E69R | -0.0492 | -0.042 |
| E69S | 0.238 | 0.251 |
| E69T | -0.0457 | -0.038 |
| E69V | -0.0216 | -0.131 |
| E69W | -0.443 | -0.306 |
| E69Y | -0.0868 | -0.0679 |
| F70C | -0.0833 | -0.179 |
| F70I | 0.0993 | 0.391 |
| F70L | 0.097 | 0.417 |
| F70P | -0.404 | -0.219 |
| F70R | -0.112 | -0.0978 |
| F70S | -0.0807 | -0.141 |
| F70V | 0.0848 | 0.218 |
| F70Y | -0.231 | -0.755 |
| N71A | 0.0886 | 0.0655 |
| N71C | -0.427 | -0.316 |
| N71D | 0.0406 | 0.117 |
| N71F | -0.249 | -0.21 |
| N71G | -0.844 | -0.443 |
| N71H | -0.0659 | -0.227 |
| N71I | 0.0219 | 0.0899 |

| Variant | log2 fold change of mutant abundance [1] | NOISeq theta enrichment statistic [2] |
| --- | --- | --- |
| N71K | -0.24 | -0.626 |
| N71L | -0.0977 | -0.0579 |
| N71M | 0.378 | 0.335 |
| N71P | 0.265 | 0.236 |
| N71Q | -0.387 | -0.233 |
| N71R | 0.00615 | 0.00643 |
| N71S | 0.0378 | 0.227 |
| N71T | 0.0333 | 0.111 |
| N71V | -0.9 | -0.515 |
| N71Y | 0.0341 | 0.252 |
| V72A | -0.0166 | -0.0526 |
| V72C | 0.243 | 0.202 |
| V72D | -0.0877 | -0.0576 |
| V72E | -0.0385 | -0.0689 |
| V72F | 0.0978 | 0.0835 |
| V72G | -0.244 | -0.697 |
| V72I | -0.115 | -0.0945 |
| V72L | 0.0508 | 0.183 |
| V72M | -0.0371 | -0.153 |
| V72R | 0.197 | 0.134 |
| V72S | -0.0435 | -0.0375 |
| V72T | 0.532 | 0.304 |
| V72W | -0.0505 | -0.071 |
| K73A | -0.112 | -0.398 |

An excerpt of these results, with each value named:
N71S
  log2 fold change of mutant abundance [1] = 0.0378; NOISeq theta enrichment statistic [2] = 0.227
N71T
  log2 fold change of mutant abundance [1] = 0.0333; NOISeq theta enrichment statistic [2] = 0.111
N71V
  log2 fold change of mutant abundance [1] = -0.9; NOISeq theta enrichment statistic [2] = -0.515
N71Y
  log2 fold change of mutant abundance [1] = 0.0341; NOISeq theta enrichment statistic [2] = 0.252

The list goes on:

| Variant | log2 fold change of mutant abundance [1] | NOISeq theta enrichment statistic [2] |
| --- | --- | --- |
| K73D | -0.195 | -0.949 |
| K73G | -0.022 | -0.135 |
| K73H | 0.349 | 0.281 |
| K73I | -0.264 | -0.161 |
| K73L | 0.256 | 0.148 |
| K73N | 0.0298 | 0.0349 |
| K73Q | 0.0951 | 0.132 |
| K73R | -0.293 | -0.169 |
| K73S | -0.332 | -0.307 |
| K73T | 0.202 | 0.153 |
| K73V | 0.0366 | 0.182 |
| K73Y | -0.302 | -0.249 |
| Y74A | -0.0103 | -0.00718 |
| Y74C | 0.495 | 1.13 |
| Y74D | -0.139 | -0.314 |
| Y74E | -0.127 | -0.096 |
| Y74F | 0.141 | 0.83 |
| Y74G | 0.128 | 0.0965 |
| Y74H | -0.00398 | -0.00569 |
| Y74I | 0.203 | 0.284 |
